From PMC10790229 (Journal of medicinal chemistry, 2023)

Assay: in vitro
Settings: human, microsomes, % Remaining (NCF = 60 min)

Work on `CCCNCC(O)COc1ccccc1C(=O)CCc1ccccc1` (stereo not shown) [Propafenone, propafenone, reference compound] yielded a remaining at 1 h, 1 µM of 104%.
